# Some of these results come from one statement about several compounds together.
# B1: 2G1: parental chimeric anti-CMKLR1 antibody: heavy chain variable domain SEQ ID No. 37, light chain variable domain SEQ ID No. 49 (antibody, V domains shown)
# VH: EVQLVASGGGLVQPGGSLKLSCAASGFTFSSYGMSWVRQTPDRRLELVATINRYGGSTYYPDSVKGRFTISRDNAKNTLYLQMSSLKSEDTAMYYCPRLIYYGNEGDSWGQGTTLTVSS
# VL: QIVLTQSPAIMSASPGEKVTMTCSASSSVSFMHWYQQKSGTSPKRWIYDTTKLTSGVPARFSGSGSGTFYSLTISSMEAEDAATYYCQQWNSKPPLTFGPGTKLELKR
# Tested on: Hepa 1.6 cells
# Assay: Hepatocarcinoma model (HCC), orthotopic murine hepatoma
# Assay type: in vivo, mice
# Conditions: FIG. 20
# Procedure: FIG. 20. Effect of an anti-CMKLR1 antibody on a Hepatocarcinoma mice model (HCC model). Anti-tumor effect of anti-CMKLR1 antibody (2G1, 0.8 mg/kg) i.p. administration three times a week for 2 weeks in combination (▴) or not (●) with two injections on day 4 and 8 of anti-PD1 mAb (RMP1-14 clone, 8 mg/kg) or with injections (twice a week) of anti-PD-1 antibody alone (Δ). Mice have been treated during 2 weeks in an orthotropic model of murine hepatoma (2.5.10^6 of Hepa 1.6 cells injected through the portal vein on day 0). Isotype control antibody was used at 0.8 mg/kg three times a week for 2 weeks. Mice response were considered partial (PR) when mice survive few days to 1 month after stop of treatment or complete (CR) when mice survive over 1 month or cured when they survive three times longer than the time necessary to all control mice dye.
# Method: Mice were anesthetized with a cocktail of xylazine/ketamine. After a laparotomy, tumoral Hepa 1.6 cells were injected in PBS through the portal vein (2.5·10^6 cells/100 μL) in PBS. The treatment was started 4 days after tumor injection. The anti-CMKLR1 antibody (2G1clone) and the hIgG1 istotype control were injected at 0.8 mg/kg three times per week during 2 weeks. The anti-PD1 monoclonal antibody was injected twice a week during 2 weeks intraperitoneally in PBS (8 mg/kg). […]
molecule,measurement,value
B1,response,PR (partial (PR) when mice survive few days to 1 month after stop of treatment)
